In PubChem BioAssay AID646 (Vanderbilt High Throughput Screening Facility, 2007):
In all, about 1,900 compounds went through this assay and about 15 (0.8%) were called active. Cut-off read from the data, not from the text of the source: active = luminescence above about 3900; inactive = the rest. Most of the actives are listed elsewhere, so they are rarer here than in the full data.

Chains of the proteins cited; added tags and fusions are not shown.
UniProt P21728, whole entry, looked up: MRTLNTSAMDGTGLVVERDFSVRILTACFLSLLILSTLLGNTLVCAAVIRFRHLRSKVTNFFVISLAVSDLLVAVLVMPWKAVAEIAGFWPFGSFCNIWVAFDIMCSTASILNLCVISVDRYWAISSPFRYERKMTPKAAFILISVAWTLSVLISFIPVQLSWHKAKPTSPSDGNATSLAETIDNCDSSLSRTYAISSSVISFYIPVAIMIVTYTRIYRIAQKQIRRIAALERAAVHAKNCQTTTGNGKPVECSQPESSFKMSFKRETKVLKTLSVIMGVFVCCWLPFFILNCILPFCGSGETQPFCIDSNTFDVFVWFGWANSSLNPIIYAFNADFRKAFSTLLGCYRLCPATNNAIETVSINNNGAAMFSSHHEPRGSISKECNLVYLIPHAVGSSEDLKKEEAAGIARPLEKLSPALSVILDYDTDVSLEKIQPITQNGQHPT

These compounds were tested against D(1A) dopamine receptor (Homo sapiens) (UniProt P21728) (assay: D1 receptor agonism without dopamine, confirmation, mechanism study for D1 allosteric modulator project, cell-based, HEK293 D1, CRE-luciferase, secondary assay 1 (AID 646)). Details: no dopamine, at 10 µM, active compounds read high.
In the case of `CCC(=NCc1ccco1)c1c(O)n(Cc2ccccc2)c(=O)[nH]c1=O`, the luminescence is reported as inactive: 1620.
